Results published in PMC7226468, “Insight into the RssB-Mediated Recognition and Delivery of σ^s to the AAA+ Protease, ClpXP” (Biomolecules, 2020).

Amino acid sequences for entries named in this document (tags omitted). A change or cut given only in a name is not applied to a line headed by its entry.
UniProt P0A6H1: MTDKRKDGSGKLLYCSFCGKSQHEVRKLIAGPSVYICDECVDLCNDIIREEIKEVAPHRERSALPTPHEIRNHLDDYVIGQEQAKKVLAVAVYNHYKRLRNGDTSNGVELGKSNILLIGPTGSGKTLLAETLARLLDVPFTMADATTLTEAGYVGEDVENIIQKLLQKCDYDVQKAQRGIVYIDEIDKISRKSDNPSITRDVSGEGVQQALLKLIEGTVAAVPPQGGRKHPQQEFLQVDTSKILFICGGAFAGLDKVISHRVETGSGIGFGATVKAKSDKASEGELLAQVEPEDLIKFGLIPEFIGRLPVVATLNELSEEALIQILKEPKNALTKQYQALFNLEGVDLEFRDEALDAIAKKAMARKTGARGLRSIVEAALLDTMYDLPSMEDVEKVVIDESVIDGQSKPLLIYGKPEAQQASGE

Experiments:
[1] = molecular target: T1, RssBC (residues 131–337), untagged (E. coli) (UniProt P0AEV1); assay: cross-linking; 0.005% (v/v) glutaraldehyde, 35 μg of each protein, 20 mM Hepes-KOH pH 7.5, 140 mM NaCl, 10 mM MgCl2, time course; SDS-PAGE and immunodecoration (anti-His, anti-RssB or anti-σS antisera); both purified
T1 sequence: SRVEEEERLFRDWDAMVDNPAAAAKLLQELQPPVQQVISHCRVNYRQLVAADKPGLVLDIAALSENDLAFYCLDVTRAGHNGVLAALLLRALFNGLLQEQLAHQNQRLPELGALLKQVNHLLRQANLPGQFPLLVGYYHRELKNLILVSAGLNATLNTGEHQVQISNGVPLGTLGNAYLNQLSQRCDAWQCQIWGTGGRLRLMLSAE

[2] = molecular target: T2, RssB (residues 1–337), untagged (E. coli, UniProt P0AEV1 1-337); assay: as above
T2 sequence (looked up): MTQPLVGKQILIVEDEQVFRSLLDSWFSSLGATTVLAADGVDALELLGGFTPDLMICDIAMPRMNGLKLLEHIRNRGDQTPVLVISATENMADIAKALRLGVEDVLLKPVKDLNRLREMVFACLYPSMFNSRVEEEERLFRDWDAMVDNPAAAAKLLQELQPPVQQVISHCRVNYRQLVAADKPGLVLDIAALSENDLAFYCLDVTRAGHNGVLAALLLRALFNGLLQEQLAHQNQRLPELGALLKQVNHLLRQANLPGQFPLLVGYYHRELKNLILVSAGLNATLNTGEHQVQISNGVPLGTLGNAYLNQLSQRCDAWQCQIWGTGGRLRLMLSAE

[3] = molecular target: T3, RssBN (residues 1–128), untagged (E. coli) (UniProt P0AEV1); assay: as above
T3 sequence: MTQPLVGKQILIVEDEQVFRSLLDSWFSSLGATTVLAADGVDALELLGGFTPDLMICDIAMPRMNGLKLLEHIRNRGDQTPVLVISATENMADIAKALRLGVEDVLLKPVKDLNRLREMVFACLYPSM

[4] = molecular target: T4, RssB peptide library spot 21 (13-mer) (E. coli) (UniProt P0AEV1); assay: peptide or protein array; RssB 13-mer peptides (overlapping by 10) on cellulose membrane, panned with 2.5 μM ecClpXZBD in MP2 buffer pH 7.6, 100 mM KCl, 30 min, room temperature; bound protein transferred to PVDF, detected with anti-ClpX antisera; both purified
T4 sequence (peptide): MPRMNGLKLLEHI

[5] = molecular target: T5, RssB peptide library spot 82 (13-mer) (E. coli) (UniProt P0AEV1); assay: as above
T5 sequence (peptide): LLKQVNHLLRQAN

[6] = molecular target: T6, RssB peptide library spot 81 (13-mer) (E. coli) (UniProt P0AEV1); assay: as above
T6 sequence (peptide): LGALLKQVNHLLR

[7] = molecular target: T7, RssB peptide library spot 90 (13-mer) (E. coli) (UniProt P0AEV1); assay: as above
T7 sequence (peptide): YHRELKNLILVSA

[8] = molecular target: T8, RssB peptide library spot 20 (13-mer) (E. coli) (UniProt P0AEV1); assay: as above
T8 sequence (peptide): DIAMPRMNGLKLL

[9] = molecular target: T9, RssB peptide library spot 109 (13-mer), putative RssBXBR motif (E. coli) (UniProt P0AEV1); assay: as above
T9 sequence (peptide): GTGGRLRLMLSAE

[10] = molecular target: T10, RssB peptide library spot 22 (13-mer) (E. coli) (UniProt P0AEV1); assay: as above
T10 sequence (peptide): MNGLKLLEHIRNR

[11] = molecular target: T11, RssB peptide library spot 91 (13-mer) (E. coli) (UniProt P0AEV1); assay: as above
T11 sequence (peptide): ELKNLILVSAGLN

[12] = molecular target: T12, RssB peptide library spot 23 (13-mer) (E. coli) (UniProt P0AEV1); assay: as above
T12 sequence (peptide): LKLLEHIRNRGDQ

- binding [1]: binds
- binding [2]: binds
- binding [3]: no binding
- binding [4]: binds
- binding [5]: binds
- binding [6]: binds
- binding [7]: binds
- binding [8]: binds
- binding [9]: no binding (tested: 2.5 μM)
- binding [10]: binds
- binding [11]: binds
- binding [12]: binds
Substance: His6-tagged zinc binding domain (ZBD) of E. coli ClpX (from UniProt P0A6H1) (domain or fragment)

No constants are given. Whether binding was seen depends on the method and setting. For part of these data: A result given as binding can be weak or reduced; the word gives no strength. For part of these data: Where a sequence is shown, tags or fusion partners need not be part of it.
